# Literature values in patent US20080249123A1, “WORTMANNIN-RAPAMYCIN CONJUGATE AND USES THEREOF” (Wyeth, priority 2007, published 2008).
# For at least one compound, name, drawing or mass did not settle the structure.
# System: solid tumor types including breast, colon, prostate and renal cell carcinomas
# Details: read-out: typical IC50 against solid tumor types; cited from earlier work
structure (smiles),measurement,value
CO[C@H]1C[C@@H]2CC[C@@H](C)[C@@](O)(O2)C(=O)C(=O)N2CCCC[C@H]2C(=O)O[C@H]([C@H](C)C[C@@H]2CC[C@@H](O)[C@H](OC)C2)CC(=O)[C@H](C)/C=C(\C)[C@@H](O)[C@@H](OC)C(=O)[C@H](C)C[C@H](C)/C=C/C=C/C=C/1C [Rapamycin],IC50,< 0.05 µM
